Measurements: PubChem BioAssay AID2685 (National Center for Advancing Translational Sciences (NCATS), 2010)
Some of the results follow. These are further read-outs of the screen, such as a control signal, another cell line or another target. No call is given for them. Most of these compounds were active or inconclusive in the main read-out, so they are no random draw. Potencies come from curve fits of mixed quality, noted in brackets.

Assay: qHTS Assay for Lipid Storage Modulators in Drosophila S3 Cells;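 on cell number change: cells counted by Cell Tracker Red CMTPX staining in the red channel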
Settings: BODIPY lipid droplet fluorescence, 18-24 h; for cell number change: measured here: cell count max response, cells fed with added oleic acid
Outline: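 Drosophila S3 cells loaded with oleic acid (400 uM, as added) and compounds at several concentrations; lipid droplets imaged by 488-nm laser-scanning cytometry, 500–530 nm intensity and object ratio to cell channel. Percent activity normalized to 20 uM Triacsin C.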

[1] = measured here: lipid fluorescence (Fed channel) AC50, cells fed with added oleic acid
[2] = measured here: cell number channel AC50, cells fed with added oleic acid

## Cc1ccccc1C(=O)NCC(=O)OC(C)C(=O)NC(C)CCc1ccccc1 (stereo not drawn)
  cell number change: -0.275%
[1]
  AC50: 0.13 µM [rising, full curve, poor fit]

## COc1ccc(C(C)=O)cc1CSCCC#N
  cell number change: -7.01%
[2]
  AC50: 1.16 µM [falling, full curve]

## Cc1ccc(CSc2nc3nc(C)cc(C)n3n2)cc1
  cell number change: 19.5%

## Cc1ccc2[nH]c3c(=O)n(N)c(=O)[nH]c3c2c1
  cell number change: -5.68%

## COc1ccc(NS(=O)(=O)c2cccc(C(=O)O)c2)cc1
  cell number change: -81.9%
[2]
  AC50: 13 µM [falling, partial curve]
[1]
  AC50: 20.6 µM [falling, partial curve]

## COc1cccc(CNC(=O)C(=O)N2CCC3(CC2)OCCN3S(=O)(=O)c2ccc(C)cc2)c1
[1]
  AC50: 9.2 µM [rising, partial curve, poor fit]

## CNC(=O)c1ccc(NC(=O)CN2c3cccc4cccc(c34)S2(=O)=O)cc1
[2]
  AC50: 4.11 µM [rising, partial curve]

## C/C(=N\Nc1cc(N2CCOCC2)ncn1)c1ccc(O)cc1
  cell number change: -25.9%
[1]
  AC50: 29.1 µM [falling, single point]

## Cc1ccc(CN2CCC(N3CCC(C(=O)NCC4CCCO4)CC3)CC2)o1 (stereo not drawn)
  cell number change: -54.4%
[2]
  AC50: 0.00651 µM [falling, full curve, poor fit]
[1]
  AC50: 0.82 µM [falling, partial curve, poor fit]

## COc1cc(C)c(S(=O)(=O)n2ccc(C)n2)cc1C
  cell number change: 94.8%
[2]
  AC50: 0.411 µM [rising, full curve]
[1]
  AC50: 0.291 µM [rising, full curve]

## Cc1ccc(S(=O)(=O)NCC(=O)NCC(=O)OCC(=O)NC(=O)NC(C)(C)C)cc1C
  cell number change: -25%
[1]
  AC50: 6.51 µM [rising, partial curve, poor fit]

## Cn1c(SCc2ccccc2)nc2c1c(=O)[nH]c(=O)n2C
  cell number change: 91.5%
[2]
  AC50: 18.4 µM [rising, partial curve]

## Cc1ccoc1C(=O)Nc1cccc(Oc2ccccc2)c1
  cell number change: 14.3%
[2]
  AC50: 0.291 µM [rising, full curve, poor fit]
[1]
  AC50: 0.651 µM [rising, full curve]

## C/C(=N\NC(=O)c1cc(C)nc2ccccc12)c1ccco1
  cell number change: 11.6%
[1]
  AC50: 35.5 µM [rising, single point]

## COc1ccc(-c2cc(=O)oc3cc(OCC(=O)N(C)C)ccc23)cc1
  cell number change: -13.8%
[1]
  AC50: 0.13 µM [rising, full curve, poor fit]

## COc1cc(Cn2ccnc2)c(OC)cc1Cn1ccnc1
  cell number change: 32.6%
[2]
  AC50: 18.4 µM [rising, single point]

## COc1ccc(CC(=O)NCC2CCCN(Cc3ccc(SC)cc3)C2)cc1 (stereo not drawn)
  cell number change: -5.87%
[1]
  AC50: 6.51 µM [falling, single point]

## CC(C)(C)NC(=O)C(c1cccs1)N(C(=O)c1csnn1)c1ccccc1F (stereo not drawn)
  cell number change: 1.85%
[2]
  AC50: 4.11 µM [falling, single point]

## COC(=O)c1cc(NC(=O)c2nccnc2C(=O)O)cc(C(=O)OC)c1
  cell number change: 18.4%
[2]
  AC50: 4.11 µM [rising, single point]

## Cc1ccc2nsnc2c1S(=O)(=O)N1CCN(C(=O)C2CCCO2)CC1 (stereo not drawn)
  cell number change: 12.6%
[1]
  AC50: 0.651 µM [falling, single point]

## COc1ccc(OC)c2[nH]c(=O)c(CCNC(=O)C(=O)c3c[nH]c4ccccc34)cc12
  cell number change: 31%
[2]
  AC50: 0.092 µM [rising, full curve, poor fit]
[1]
  AC50: 0.461 µM [rising, full curve, poor fit]

## O=C(CCNS(=O)(=O)c1ccccc1)NNC(=O)c1csc(N2CCOCC2)n1
  cell number change: 25.5%
[1]
  AC50: 29.1 µM [rising, single point]

## CCCNC(=O)c1cc(C)no1
  cell number change: -92.2%
[2]
  AC50: 20.6 µM [falling, partial curve]
[1]
  AC50: 29.1 µM [falling, partial curve]

## CCOc1ccccc1N(CC(=O)N1CCc2ccccc2C1)S(C)(=O)=O
  cell number change: 20.8%
[1]
  AC50: 29.1 µM [rising, single point]

## Cc1nn(C)cc1CN1CCC(n2nccc2NC(=O)CCCc2ccccc2)CC1
  cell number change: 2.07%
[1]
  AC50: 6.51 µM [falling, single point]

## NC(=O)C1CC12c1ccccc1-c1ccccc12 (stereo not drawn)
  cell number change: -11.7%

## NC(=O)NC(Cc1ccccc1)c1ccccc1 (stereo not drawn)
  cell number change: -42.2%
[1]
  AC50: 0.13 µM [falling, full curve, poor fit]

## O=C(Nc1nc2c(s1)CCCC2=O)c1cnccn1
  cell number change: 21.2%
[1]
  AC50: 29.1 µM [rising, single point]

## Cc1ccc(C(=O)OCc2cc(=O)n3c(C)csc3n2)s1
  cell number change: 6.77%
[1]
  AC50: 0.103 µM [rising, full curve, poor fit]

## Cc1ccc(NC(=O)CN2C(=O)N/C(=C/c3ccccc3OCc3cccc(C(=O)O)c3)C2=O)cc1
  cell number change: 4.76%

## O=C(/C=C/c1ccc2c(c1)OCO2)NCc1ccc(F)cc1
  cell number change: 0.103%
[1]
  AC50: 29.1 µM [falling, single point]

## CNS(=O)(=O)c1cn(CC(=O)NCc2ccc(OC)cc2)cc1S(=O)(=O)NC
[2]
  AC50: 0.00411 µM [rising, full curve, poor fit]
[1]
  AC50: 0.58 µM [rising, single point]

## O=C(O)CCCC(=O)Nc1ccc(Cl)cc1
  cell number change: 16.8%
[1]
  AC50: 0.164 µM [rising, full curve, poor fit]

## CCC(=O)OCCNc1cc(Sc2nc3ccccc3s2)c2nonc2c1[N+](=O)[O-]
  cell number change: -57.1%
[2]
  AC50: 9.2 µM [falling, partial curve, poor fit]
[1]
  AC50: 20.6 µM [falling, single point]

## CC(C)Cc1cc(C(=O)NCc2cccs2)no1
[1]
  AC50: 6.51 µM [rising, single point]

## Cc1ccccc1NC(=O)Cc1c(O)c2ccccc2[nH]c1=O
  cell number change: 0.631%
[1]
  AC50: 0.082 µM [falling, full curve, poor fit]

## CC(Oc1ccccc1)C(=O)Nc1ccc(S(=O)(=O)NCC2CCCO2)cc1 (stereo not drawn)
[2]
  AC50: 0.00461 µM [rising, full curve, poor fit]

## CN(Cc1ccco1)c1ncnc2ccc(-c3cccc(Cl)c3)cc12
  cell number change: 11%
[1]
  AC50: 2.06 µM [rising, full curve, poor fit]

## COc1ccc(OCC(=O)O/N=C(\N)c2ccc(OC)c(OC)c2)cc1
  cell number change: 2.13%
[1]
  AC50: 29.1 µM [rising, single point]

## COc1ccc(COc2cc(-c3cccc(OC)c3)nc3ccc(NC(=O)c4ccc(N(C)C)cc4)cc23)cc1
  cell number change: 21.8%
[1]
  AC50: 2.59 µM [rising, partial curve]

## COc1cc(/C=N/NC(=O)c2ccccc2Cl)ccc1Oc1ccc([N+](=O)[O-])cn1
  cell number change: 18.8%
[2]
  AC50: 0.366 µM [rising, full curve, poor fit]

## Cc1ccc(CN2CCN(c3ccccc3)CC2)o1
  cell number change: 38.5%
[2]
  AC50: 29.1 µM [rising, single point]
[1]
  AC50: 29.1 µM [rising, single point]

## CCOc1cc(C(c2c(C)[nH][nH]c2=O)c2c(C)[nH][nH]c2=O)ccc1OC(=O)c1cccc([N+](=O)[O-])c1
  cell number change: -58.2%
[2]
  AC50: 3.66 µM [falling, full curve]
[1]
  AC50: 29.1 µM [falling, single point]

## CN1CCN(S(=O)(=O)c2ccc(N(C)Cc3cccc(F)c3)nc2)CC1
  cell number change: 2.2%
[1]
  AC50: 29.1 µM [rising, single point]

## COc1ccccc1CN(Cc1cccnc1)S(=O)(=O)c1ccc(-n2cnnn2)c(OC)c1
  cell number change: -2.78%

## Cc1nc2nc(SCC(=O)Nc3cccc(F)c3)[nH]c2cc1Br
  cell number change: 99.6%
[2]
  AC50: 4.11 µM [falling, single point]
[1]
  AC50: 0.731 µM [rising, single point]

## c1ccc2sc(-c3ccncc3)nc2c1
  cell number change: 2.14%
[1]
  AC50: 1.46 µM [rising, partial curve, poor fit]

## CCCCc1ccc(NS(=O)(=O)c2cccs2)cc1
  cell number change: -49.5%
[2]
  AC50: 29.1 µM [falling, single point]
[1]
  AC50: 29.1 µM [falling, single point]

## COc1ccccc1-n1c(C)c2c(OC)cccc(=O)c2c1C
  cell number change: 2.43%
[1]
  AC50: 18.4 µM [rising, single point]

## O=C(O)/C(=C\c1ccc(Cl)cc1)c1ccc(F)cc1
  cell number change: -102%
[2]
  AC50: 18.4 µM [falling, single point]
[1]
  AC50: 18.4 µM [falling, partial curve]

## COc1cccc(OCc2nc(-c3ccc(Br)o3)no2)c1
  cell number change: 35.8%
[2]
  AC50: 2.59 µM [falling, partial curve]
[1]
  AC50: 6.51 µM [falling, single point]

## COc1ccccc1-c1nc(SCC(=O)Nc2ccccc2)n[nH]1
  cell number change: 18.9%
[1]
  AC50: 29.1 µM [rising, single point]

## Cn1cc(CCC(=O)NCc2ccc3c(c2)OCO3)c2ccccc21
  cell number change: -0.119%

## COC(=O)Cn1c(=NC(=O)CN2C(=O)CCC2=O)sc2cc(S(N)(=O)=O)ccc21
  cell number change: 14.7%
[1]
  AC50: 6.51 µM [falling, single point]

## CC(C)c1ccc(OCc2nnc(SCC(=O)N3CCCCC3)o2)cc1
  cell number change: -23.7%

## CCC(C)c1ccccc1NC(=O)COc1ccc(-n2cnnn2)cc1 (stereo not drawn)
  cell number change: 6.8%
[1]
  AC50: 6.51 µM [falling, single point]

## COCCCN(Cc1cccs1)S(=O)(=O)c1c[nH]c(C(=O)OC)c1
  cell number change: 21.4%

## Cc1ccc(CNC(=O)CCn2c(=O)oc3ccccc32)cc1
  cell number change: -12.1%

## C/C(=N\NC(=O)c1nnn(-c2nonc2N)c1C(C)C)c1cc(C)sc1C
  cell number change: 5.5%
[1]
  AC50: 7.31 µM [rising, partial curve]
